PubChem BioAssay AID1159578, Peter MacCallum Cancer Centre – 2015

Test: 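Knock-downs that alter how fast lymphatic endothelial cells migrate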 (primary screen)
Cells: human lymphatic endothelial cells
Reagent: siRNA pool against human genes, 40 nM
Duration: 48 h after transfection
Measurement: 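High-content imaging of dye-stained cells in a scratch assay measures filled wound area and nuclei per well; duplicate means given as ratio to mock and robust z-score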
Scale: migration robust z-score: higher = faster migration into the scratch; migration relative to mock: higher = more scratch area covered than mock; nuclei per well: higher = more cells in the well
Active means: 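Migration changed when robust z exceeds 2 or falls below -2 and mean nuclei number is at least 3300; otherwise not called changed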
Calls: active = migration changed; inactive = no migration change, or too few cells
The deposit covers about 18,000 reagents; shown is a random part of them. Over the whole deposit, about 1,030 (5.7%) got an active call. 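Inactive calls also include pools with fewer than 3300 nuclei, whose migration was not assessed.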 Raw values are not corrected between plates.

| gene | PubChem SID | migration robust z-score | migration class with cell-count check | migration relative to mock | nuclei per well, duplicate mean | Outcome |
| --- | --- | --- | --- | --- | --- | --- |
| FTSJ1 | SID255356437 | 0.78 | migration z between -2 and 2; enough cells | 0.96 | 5624 | inactive |
| GNB2 | SID255349944 | 0.12 | migration z between -2 and 2; enough cells | 0.92 | 6049 | inactive |
| TGM1 | SID255352850 | 0.26 | migration z between -2 and 2; enough cells | 0.86 | 5233 | inactive |
| PLTP | SID255351644 | 0.16 | migration z between -2 and 2; enough cells | 0.84 | 5264 | inactive |
| ARK2N | SID255363324 | -1.86 | migration z between -2 and 2; enough cells | 0.4 | 6288 | inactive |
| MS4A6A | SID255359881 | -0.64 | migration z between -2 and 2; enough cells | 0.72 | 6246 | inactive |
| ACOT1 | SID255366062 | 0.78 | migration z between -2 and 2; enough cells | 0.96 | 6614 | inactive |
| GPBP1 | SID255360078 | 0.32 | migration z between -2 and 2; enough cells | 0.97 | 6000 | inactive |
| ACAT2 | SID255348139 | -0.84 | migration z between -2 and 2; enough cells | 0.64 | 5702 | inactive |
| PLOD2 | SID255351637 | 1.66 | migration z between -2 and 2; enough cells | 1.12 | 4913 | inactive |
| ZNF629 | SID255356184 | 0.96 | migration z between -2 and 2; enough cells | 1.14 | 5888 | inactive |
| PIP5K1A | SID255353524 | -2.08 | migration z below -2; enough cells | 0.4 | 4346 | active |
| ASCL3 | SID255359116 | 1.67 | migration z between -2 and 2; enough cells | 1.32 | 5108 | inactive |
| BOD1 | SID255361897 | -1.24 | migration z between -2 and 2; enough cells | 0.56 | 5438 | inactive |
| DGKH | SID255363713 | -0.39 | migration z between -2 and 2; enough cells | 0.73 | 4978 | inactive |
| CCDC102B | SID255360505 | -0.38 | migration z between -2 and 2; enough cells | 0.78 | 5008 | inactive |
| OR3A1 | SID255351362 | 1.31 | migration z between -2 and 2; enough cells | 1.22 | 6493 | inactive |
| DCTN1 | SID255349257 | -0.48 | migration z between -2 and 2; enough cells | 0.76 | 5397 | inactive |
| PLSCR2 | SID255359241 | -0.99 | migration z between -2 and 2; enough cells | 0.62 | 6420 | inactive |
| STK38 | SID255355754 | -2.67 | migration z below -2; enough cells | 0.29 | 4942 | active |
| CHODL | SID255363107 | 0.73 | migration z between -2 and 2; enough cells | 1.08 | 5738 | inactive |
| FBRS | SID255359892 | -1.49 | migration z between -2 and 2; enough cells | 0.5 | 6127 | inactive |
| ETV5 | SID255349574 | -0.73 | migration z between -2 and 2; enough cells | 0.66 | 5664 | inactive |
